According to PMC7819943, “Rice protein-binding microarrays: a tool to detect cis-acting elements near promoter regions in rice”:
The list shows a part of the results.

The chains behind the UniProt entries cited, without tags or fusion partners.
UniProt Q0JBA9, entry or part of it: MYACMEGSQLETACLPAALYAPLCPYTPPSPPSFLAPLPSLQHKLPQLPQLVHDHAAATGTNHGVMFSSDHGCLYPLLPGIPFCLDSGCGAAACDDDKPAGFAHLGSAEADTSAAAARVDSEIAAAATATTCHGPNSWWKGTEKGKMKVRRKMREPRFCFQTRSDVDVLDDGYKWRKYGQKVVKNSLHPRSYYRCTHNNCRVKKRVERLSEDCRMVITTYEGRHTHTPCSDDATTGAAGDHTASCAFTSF

Each sequence was assayed against OsWRKY34 (Oryza sativa, UniProt Q0JBA9 1-250) (assay: protein-binding microarray (RPBM); PBS, 2% BSA, 51.3 ng/ul salmon testes DNA, 50 uM zinc acetate, 200 nM TF, 25 C, 1 h; high values mean tight binding). Conditions: protein: recombinant; tags: N-terminal polyhistidine and DsRed monomer fusion (pET32a); label: CyDye5-dUTP incorporated in the synthesized complementary strand; 3' TTTTT single-stranded linker to array surface; dsDNA, one strand shown.
Summary of the method: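 An Axon 4000B scanner gave the binding signal as per-feature fluorescence intensity in arbitrary units. This followed washing of a custom Agilent array that had been incubated for 1 h at 25 °C with 200 nM protein in PBS, 2% BSA, salmon testes DNA and 50 µM zinc acetate. The proteins were transcription factors fused at the N-terminus to polyhistidine and DsRed, expressed in E. coli BL21-CodonPlus and purified on Ni–NTA.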

Row | Sequence | binding signal
1 | AGGGTTTACGTTACTGTCTCGCGTCGTTTCTACGGTTACCCGGAGTCACCTAGTGCAG | 10800 fluorescence intensity (a.u.)
2 | AATCTTTCGCTAATTCGTTTCACCTTCCCCATTCCATCTCCGGAGTCACCTAGTGCAG | 11600 fluorescence intensity (a.u.)
3 | CGCTAGGGTTTGCTCTTCCGCTCTCTCGCCGCCGCCGCCGCGGAGTCACCTAGTGCAG | 10300 fluorescence intensity (a.u.)
4 | GCAGTAATCGTGCCCGTGCCTGAGTCCGTTTCCATACGCGCGGAGTCACCTAGTGCAG | 8260 fluorescence intensity (a.u.)
5 | TATTGTTCCGTTTCCGGTTTTCCGATATTTCCGATATCGTCGGAGTCACCTAGTGCAG | 12000 fluorescence intensity (a.u.)
6 | AGTTTTTGTTTGAACTGTTTGACCACTTGTCTTATTCAAACGGAGTCACCTAGTGCAG | 10900 fluorescence intensity (a.u.)
7 | AACGTGGATGCTTTTTTTTATTCCTTTAATAAGTTATTAGCGGAGTCACCTAGTGCAG | 8130 fluorescence intensity (a.u.)
8 | CGCCGAGTGGTGGTTGGTTGGTTGATCGCGCATGTTGGGTCGGAGTCACCTAGTGCAG | 10100 fluorescence intensity (a.u.)
9 | TGTGGTGTGTGTGTGGCTGAAACCGCGAGGCCGCCGCGAGCGGAGTCACCTAGTGCAG | 8510 fluorescence intensity (a.u.)
10 | ACCTAGCACAAAACGACATTCTATATACACTGTTTTTCTTCGGAGTCACCTAGTGCAG | 9850 fluorescence intensity (a.u.)
11 | TTTAAATGTTTCAGTTGCTGATTTTTTTTGTTTCACACTACGGAGTCACCTAGTGCAG | 8070 fluorescence intensity (a.u.)
12 | GCAACTGAAGCTCCCATAAACATTTCGGCATGCTATTTCTCGGAGTCACCTAGTGCAG | 8160 fluorescence intensity (a.u.)
13 | CGCGGTTGTTTCTTGTCTGTTGAATGGTCAACTTTGACCGCGGAGTCACCTAGTGCAG | 14800 fluorescence intensity (a.u.)
14 | TGGTTTGGTTGTGGTAGATCTTTTTTACTTATTGCTACCACGGAGTCACCTAGTGCAG | 15800 fluorescence intensity (a.u.)
15 | AGGGGCCAAGTTGCGCGGGGTTGTATTGACTGAATGGCGCCGGAGTCACCTAGTGCAG | 10100 fluorescence intensity (a.u.)
16 | ACTGTGTTGTTCAATTCTCATTCCAGCCTTCTACTGCAATCGGAGTCACCTAGTGCAG | 11000 fluorescence intensity (a.u.)
17 | GATTGCTTTTCTATTTTTCCTTTTTTTTTTATCATCCTTACGGAGTCACCTAGTGCAG | 12400 fluorescence intensity (a.u.)
18 | CCTCGCGCACACCGTTGATAACTTGATACTCTCCCGATTTCGGAGTCACCTAGTGCAG | 10800 fluorescence intensity (a.u.)
19 | CAGCCAAGCCACTATTCCCTGTCATCTCCGGCGCCGACGCCGGAGTCACCTAGTGCAG | 8510 fluorescence intensity (a.u.)
20 | CCCACATGTCATTCTCACCCCTCCTCTTCTTCCTCTTATTCGGAGTCACCTAGTGCAG | 10500 fluorescence intensity (a.u.)
21 | CCATCCGAAATTTTCTCTTCCTTAAATTTCGCCGTCTCGACGGAGTCACCTAGTGCAG | 9540 fluorescence intensity (a.u.)

Row | Sequence | binding signal
22 | ACACGTGATTTCTCACCGCTCGACGCTCGTCCTCTCCCCTCGGAGTCACCTAGTGCAG | 8740 fluorescence intensity (a.u.)
23 | GTTGTTCGTGTGTTTTGCAATCCTCTGTTTTACACTTGCACGGAGTCACCTAGTGCAG | 11000 fluorescence intensity (a.u.)
24 | TTGCAATAGTTTATTCCGCCTGTCTAATGACCGGCCGGTGCGGAGTCACCTAGTGCAG | 11100 fluorescence intensity (a.u.)
25 | ATGGAGAAGAATGTCTCGCCCTGATACCTTGGTTGCTTTGCGGAGTCACCTAGTGCAG | 8120 fluorescence intensity (a.u.)
26 | TACTCGAATTAAGTACTTACTATTATTCTTCTTTTGTATTCGGAGTCACCTAGTGCAG | 8200 fluorescence intensity (a.u.)
27 | CATTATATTCTTTAGCTCGAGGTGTTGTTAATCATTGTTACGGAGTCACCTAGTGCAG | 9820 fluorescence intensity (a.u.)
28 | AAGTTGTTAGTCAAGGTGATTAGGTTGGATGATTTGACCTCGGAGTCACCTAGTGCAG | 8690 fluorescence intensity (a.u.)
29 | CACCACTGCAGCCTCCTCCTCTTGCCATCCTTCCGCTTCTCGGAGTCACCTAGTGCAG | 8620 fluorescence intensity (a.u.)
30 | TACGTCTCCTCCGATACATCGCGCTTTCCTGCTCCCTTTTCGGAGTCACCTAGTGCAG | 11100 fluorescence intensity (a.u.)
31 | GCGTCCACTTGCACGGTTTTTTACTGTTATTTCTTTTCGTCGGAGTCACCTAGTGCAG | 8320 fluorescence intensity (a.u.)
32 | TTTACCGGCCTTATTGGTCTTTTTTTTATTATTTCTTTTACGGAGTCACCTAGTGCAG | 10800 fluorescence intensity (a.u.)
33 | GTGCTCGGCTCCTCTCTCAGTAGCTTGTATGTGTCAGTTGCGGAGTCACCTAGTGCAG | 10500 fluorescence intensity (a.u.)
34 | GTCGGCTCCACTCCCGCCTCGCCATCGCCGCCCTGAAGCCCGGAGTCACCTAGTGCAG | 9340 fluorescence intensity (a.u.)
35 | TATTTCTATATGGACTTTGTTTTTTCTTTTTCTTCTTTTTCGGAGTCACCTAGTGCAG | 13100 fluorescence intensity (a.u.)
36 | GATTGATGTGGAAGAGTAGTTATTAGGAGGGAGGAAGCAACGGAGTCACCTAGTGCAG | 9030 fluorescence intensity (a.u.)
37 | TATCCCTTTGTTTTCTTACATATTATATTCTTTTCGCGTTCGGAGTCACCTAGTGCAG | 12700 fluorescence intensity (a.u.)
38 | CCCCTGCCTGCTTTGCCCGCTGGCCTCTCAGTCTTGGTGACGGAGTCACCTAGTGCAG | 8290 fluorescence intensity (a.u.)
39 | TTTTTCCCTTCTTTTTCTCCGCCGTAGTGTACTCCTCCTACGGAGTCACCTAGTGCAG | 8590 fluorescence intensity (a.u.)
40 | CCGACGCCGGCCCACCGCCCTCCTCCATCTCCGCGGCTCCCGGAGTCACCTAGTGCAG | 8070 fluorescence intensity (a.u.)
41 | ACAAAACAACAACCCACCGTAAGACGCTCCGTGCCCAAACCGGAGTCACCTAGTGCAG | 8180 fluorescence intensity (a.u.)
42 | AATGTTGGTCCTACCTTTTCCTATCCAACCTTTACGAACTCGGAGTCACCTAGTGCAG | 9860 fluorescence intensity (a.u.)

An excerpt of these results, as tab-separated lines:
Row	Sequence	binding signal
29	CACCACTGCAGCCTCCTCCTCTTGCCATCCTTCCGCTTCTCGGAGTCACCTAGTGCAG	8620 fluorescence intensity (a.u.)
30	TACGTCTCCTCCGATACATCGCGCTTTCCTGCTCCCTTTTCGGAGTCACCTAGTGCAG	11100 fluorescence intensity (a.u.)
